Results taken from the supplement of paper PMC4604168 (melanoma cell lines).
The list shows a part of the results. Single values are uncertain, as repeats are few or missing.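 Imaging used 1,536-well plates; nuclei positive for cleaved PARP by antibody were divided by total DNA-stained nuclei to yield the apoptosis fraction. Doses for screening kept most cells viable, and cell lines differ markedly in resting and induced cleaved-PARP levels.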

What was measured:
Assay in all cases: cleaved PARP positive nuclei fraction relative to DMSO control; melanoma cells; higher = more apoptosis
Conditions in all cases: library dose: low library concentration; 72 h
501Mel = tested on: 501Mel
A101D = tested on: A101D
A2058 = tested on: A2058
A375 = tested on: A375
C32 = tested on: C32
CBRC013 = tested on: CBRC013 (line from a melanoma biopsy)
CBRC014 = tested on: CBRC014 (line from a melanoma biopsy)
CBRC016 = tested on: CBRC016 (line from a melanoma biopsy)
CBRC017 = tested on: CBRC017 (line from a melanoma biopsy)
CBRC034 = tested on: CBRC034 (line from a melanoma biopsy)
COLO792 = tested on: COLO792
COLO800 = tested on: COLO800
COLO829 = tested on: COLO829
G361 = tested on: G361
IPC-298 = tested on: IPC-298
IST-MEL1 = tested on: IST-MEL1
LB2518-MEL = tested on: LB2518-MEL
LOXIMVI = tested on: LOXIMVI

| SMILES | cleaved PARP positive nuclei fraction (501Mel) [%] | cleaved PARP positive nuclei fraction (A101D) [%] | cleaved PARP positive nuclei fraction (A2058) [%] | cleaved PARP positive nuclei fraction (A375) [%] | cleaved PARP positive nuclei fraction (C32) [%] | cleaved PARP positive nuclei fraction (CBRC013) [%] | cleaved PARP positive nuclei fraction (CBRC014) [%] | cleaved PARP positive nuclei fraction (CBRC016) [%] | cleaved PARP positive nuclei fraction (CBRC017) [%] | cleaved PARP positive nuclei fraction (CBRC034) [%] | cleaved PARP positive nuclei fraction (COLO792) [%] | cleaved PARP positive nuclei fraction (COLO800) [%] | cleaved PARP positive nuclei fraction (COLO829) [%] | cleaved PARP positive nuclei fraction (G361) [%] | cleaved PARP positive nuclei fraction (IPC-298) [%] | cleaved PARP positive nuclei fraction (IST-MEL1) [%] | cleaved PARP positive nuclei fraction (LB2518-MEL) [%] | cleaved PARP positive nuclei fraction (LOXIMVI) [%] |
| --- | --- | --- | --- | --- | --- | --- | --- | --- | --- | --- | --- | --- | --- | --- | --- | --- | --- | --- |
| CN(C)S(=O)(=O)c1ccc2c(c1)/C(=C/c1cc3c([nH]1)CCCC3)C(=O)N2 + c1cc(-c2cnn3cc(-c4ccc(OCCN5CCCCC5)cc4)cnc23)ccn1 [Dorsomorphin] (first compound 0.4 µM, partner dose 0.4 µM) | 69.2 | 212 | 59.7 | 130 | 96.1 | 104 | 114 | 81.5 | 93.4 | 105 | 50.7 | 158 | 117 | 198 | 43.7 | 86 | 84.9 | 62.4 |
| COc1cc2c(Oc3ccc4[nH]c(C)cc4c3F)ncnc2cc1OCCCN1CCCC1 [cediranib] + Cc1cc([N+](=O)[O-])ccc1NS(=O)(=O)c1cc(Cl)ccc1Cl [FH535] (first compound 0.4 µM, partner dose 1 µM) | 70.9 | 58.9 | 85.1 | 87.3 | 61.6 | 48.1 | 98.1 | 2420 | 151 | 579 | 149 | 106 | 74.2 | 71.7 | 123 | 45 | 86.2 | 115 |
| N#Cc1c(O)c2c(-c3ccc(-c4ccccc4O)cc3)csc2[nH]c1=O + O=C(O)C(=O)Nc1sc2c(c1C(=O)O)CCNC2 [TCS401] (first compound 2 µM, partner dose 1.66667 µM) | 68 | 108 | 40.1 | 95.8 | 73.4 | 311 | 78.5 | 105 | 76.9 | 60.4 | 106 | 108 | 114 | 316 | 41.3 | 81.8 | 70.6 | 36.3 |
| COc1ccc(-c2ccc3c(N4CCOCC4)nc(N4C[C@@H](C)O[C@@H](C)C4)nc3n2)cc1CO + O=c1cc(-c2cccc3c2Sc2ccccc2S3)oc(N2CCOCC2)c1 [KU55933] (first compound 0.02 µM, partner dose 1 µM) | 58.8 | 122 | 98.7 | 88 | 96.3 | 138 | 79 | 83.1 | 65.5 | 83.5 | 129 | 191 | 128 | 46.7 | 77.7 | 85.9 | 59.3 | 166 |
| CN(NC(=O)CC(=O)NN(C)C(=S)c1ccccc1)C(=S)c1ccccc1 + O=C(Nc1ccccc1)c1cc([N+](=O)[O-])ccc1Cl [GW9662] (first compound 0.006 µM, partner dose 2 µM) | 300 | 86.7 | 840 | 2430 | 121 | 214 | 464 | 284 | 172 | 766 | 129 | 310 | 225 | 329 | 82.3 | 163 | 258 | 55.2 |
| O=C(Nc1ccccc1)c1cc([N+](=O)[O-])ccc1Cl + Cn1cc(/C=C2\C(=O)Nc3cccnc32)c2ccccc21 [GW441756] (first compound 2 µM, partner dose 0.4 µM) | 54.4 | 123 | 37.7 | 357 | 129 | 390 | 187 | 118 | 65.4 | 119 | 103 | 107 | 73.8 | 44.7 | 64.3 | 913 | 84.5 | 26.4 |
| Oc1cc(-c2nc(-c3ccccc3)[nH]c2-c2ccncc2)ccc1Cl + O=C(O)C(=O)Nc1sc2c(c1C(=O)O)CCNC2 [TCS401] (first compound 0.2 µM, partner dose 1.66667 µM) | 185 | 44.1 | 53.7 | 328 | 37.2 | 74.6 | 79.4 | 104 | 79.2 | 76.2 | 99.8 | 167 | 81.9 | 152 | 87.7 | 29.5 | 46.7 | 44.9 |
| COc1ccc2c(c1)CCC1C2CCC2(C)C(NCCCCCCN3C(=O)C=CC3=O)CCC12 (configuration not stated) + O=S(=O)(c1ccccc1)N(CC(F)(F)F)c1ccc(C(O)(C(F)(F)F)C(F)(F)F)cc1 [T0901317] (first compound 0.4 µM, partner dose 1.4 µM) | 176 | 213 | 77.9 | 174 | 136 | 20.9 | 120 | 111 | 90.3 | 293 | 55.6 | 135 | 105 | 72.9 | 200 | 107 | 75.1 | 43.3 |
| COc1cc2c(Oc3ccc4[nH]c(C)cc4c3F)ncnc2cc1OCCCN1CCCC1 [cediranib] + O=C(Nc1ccccc1)c1cc([N+](=O)[O-])ccc1Cl [GW9662] (first compound 0.4 µM, partner dose 2 µM) | 87.6 | 121 | 48.9 | 133 | 136 | 166 | 100 | 50.1 | 79.9 | 115 | 169 | 142 | 131 | 23.4 | 128 | 88.8 | 153 | 12.2 |
